Experimental findings from article PMC3264624 are described below.

By UniProt entry, the sequences of proteins in these tests, tags left out. Where a name states a change or a piece, a line headed by the entry shows the natural chain unless it says otherwise.
UniProt P40350: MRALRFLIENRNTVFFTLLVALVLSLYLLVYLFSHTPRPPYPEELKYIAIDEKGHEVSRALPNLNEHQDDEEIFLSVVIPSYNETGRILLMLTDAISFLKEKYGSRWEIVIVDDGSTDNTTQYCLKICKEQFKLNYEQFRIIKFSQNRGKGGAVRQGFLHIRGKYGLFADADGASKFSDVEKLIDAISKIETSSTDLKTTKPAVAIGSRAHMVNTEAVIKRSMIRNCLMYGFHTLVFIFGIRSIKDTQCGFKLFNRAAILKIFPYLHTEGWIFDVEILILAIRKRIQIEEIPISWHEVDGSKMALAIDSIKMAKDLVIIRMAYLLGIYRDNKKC
UniProt Q70KR8: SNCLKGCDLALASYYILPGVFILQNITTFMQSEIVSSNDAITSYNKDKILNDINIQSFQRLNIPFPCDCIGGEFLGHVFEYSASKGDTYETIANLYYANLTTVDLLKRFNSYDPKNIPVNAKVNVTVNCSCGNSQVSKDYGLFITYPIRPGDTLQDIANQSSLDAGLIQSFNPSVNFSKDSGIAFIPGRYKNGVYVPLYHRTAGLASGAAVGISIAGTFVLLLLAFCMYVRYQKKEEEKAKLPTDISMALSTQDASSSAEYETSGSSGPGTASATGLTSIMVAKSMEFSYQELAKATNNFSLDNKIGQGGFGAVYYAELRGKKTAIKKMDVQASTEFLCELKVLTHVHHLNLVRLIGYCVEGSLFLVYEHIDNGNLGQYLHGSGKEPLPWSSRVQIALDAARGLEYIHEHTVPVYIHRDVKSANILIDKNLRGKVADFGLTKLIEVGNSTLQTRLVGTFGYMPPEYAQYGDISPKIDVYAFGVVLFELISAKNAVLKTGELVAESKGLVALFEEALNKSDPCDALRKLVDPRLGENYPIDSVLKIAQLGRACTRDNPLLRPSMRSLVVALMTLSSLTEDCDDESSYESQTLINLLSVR

Results are given in words; binding and its absence hold for the method and conditions named.

For the assay, the target named is yeast resident ER protein Alg5, split-ubiquitin control fusion (yeast) (UniProt P40350). Kind of assay: two-hybrid; yeast split-ubiquitin system (SUS), strain NMY32; Cub bait and NubG prey; growth on -LWH medium with 15 mM 3-AT, dilution series.

As for “NFR1, yeast split-ubiquitin fusion (from UniProt Q70KR8) (receptor)”, the binding result is given as “no binding”.
